Where two headings read alike, the source gives them in different places. Some of these results come from one statement about several compounds together.
Experiments:
Format in all cases: in vivo
Pyricularia oryzae = settings: flowable (Formulation Example 6), sprayed on rice (NIHONBARE) before inoculation, 6 days at 28° C. under high humidity
Erysiphe graminis = Erysiphe graminis control test (Test Example 2, large-volume foliar spray on wheat); settings: flowable (Formulation Example 6), sprayed on wheat (NORIN No. 73), inoculated one day after, 7 days at 23° C.
Leptosphaeria nodorum = Leptosphaeria nodorum control test (Test Example 4, large-volume foliar spray on wheat); settings: flowable (Formulation Example 6), sprayed on wheat (NORIN No. 73) before inoculation, 4 days at 15° C. dark high humidity then 7 days under illumination
Puccinia striiformis = Puccinia striiformis control test (Test Example 3, large-volume foliar spray on wheat); settings: flowable (Formulation Example 6), sprayed on wheat (NORIN No. 73) before inoculation, 1 day dark high humidity at 23° C. then 6 days under illumination
Plasmopara viticola = Plasmopara viticola control effect test (Test Example 5, large-volume foliar spray on grape); settings: 200 ppm, flowable (Formulation Example 6), sprayed on grape (Berry A) before inoculation, 1 day at 23° C. high humidity then 6 days at room temperature

Measured: lesion area on plants relative to the lesion area of a non-treatment district

Cc1ccc(-c2ccccc2)cc1Cn1c(C(F)F)nn(C)c1=O [Compound 1, 5-difluoromethyl-2-methyl-4-(2-methyl-5-phenylbenzyl)-2,4-dihydro-3H-1,2,4-triazol-3-one]
not more than 10%: Pyricularia oryzae; 200 ppm | Pyricularia oryzae; 500 ppm | Erysiphe graminis; 200 ppm | Erysiphe graminis; 500 ppm | Leptosphaeria nodorum; 200 ppm | Leptosphaeria nodorum; 500 ppm | Puccinia striiformis; 200 ppm | Puccinia striiformis; 500 ppm | Plasmopara viticola

Cc1cccc(-c2ccc(C)c(Cn3c(C(F)F)nn(C)c3=O)c2)c1 [Compound 3, 5-difluoromethyl-2-methyl-4-{2-methyl-5-(3-methylphenyl)benzyl}-2,4-dihydro-3H-1,2,4-triazol-3-one]
not more than 10%: Pyricularia oryzae; 200 ppm | Erysiphe graminis; 200 ppm | Leptosphaeria nodorum; 200 ppm | Puccinia striiformis; 200 ppm | Plasmopara viticola

Cc1ccc(-c2ccc(C)c(Cn3c(C(F)F)nn(C)c3=O)c2)cc1 [Compound 4, 4-{2-methyl-5-(4-methylphenyl)benzyl}-5-difluoromethyl-2-metyl-2,4-dihydro-3H-1,2,4-triazol-3-one]
not more than 10%: Pyricularia oryzae; 200 ppm | Erysiphe graminis; 200 ppm | Leptosphaeria nodorum; 200 ppm | Puccinia striiformis; 200 ppm | Plasmopara viticola

Cc1ccc(-c2cccc(Cl)c2)cc1Cn1c(C(F)F)nn(C)c1=O [Compound 6, 4-{5-(3-chlorophenyl)-2-methylbenzyl}-5-difluoromethyl-2-methyl-2,4-dihydro-3H-1,2,4-triazol-3-one]
not more than 10%: Pyricularia oryzae; 200 ppm | Erysiphe graminis; 200 ppm | Leptosphaeria nodorum; 200 ppm | Puccinia striiformis; 200 ppm | Plasmopara viticola

Cc1ccc(-c2ccc(Cl)cc2)cc1Cn1c(C(F)F)nn(C)c1=O [Compound 7, 4-{5-(4-chlorophenyl)-2-methylbenzyl}-5-difluoromethyl-2-methyl-2,4-dihydro-3H-1,2,4-triazol-3-one]
not more than 10%: Pyricularia oryzae; 200 ppm | Erysiphe graminis; 200 ppm | Leptosphaeria nodorum; 200 ppm | Puccinia striiformis; 200 ppm | Plasmopara viticola

COc1cccc(-c2ccc(C)c(Cn3c(C(F)F)nn(C)c3=O)c2)c1 [Compound 9, 5-difluoromethyl-4-{5-(3-methoxyphenyl)-2-methylbenzyl}-2-methyl-2,4-dihydro-3H-1,2,4-triazol-3-one]
not more than 10%: Pyricularia oryzae; 200 ppm | Erysiphe graminis; 200 ppm | Leptosphaeria nodorum; 200 ppm | Puccinia striiformis; 200 ppm | Plasmopara viticola

Cc1ccc(-c2ccccc2F)cc1Cn1c(C(F)F)nn(C)c1=O [Compound 18, 5-difluoromethyl-4-{5-(2-fluorophenyl)-2-methylbenzyl}-2-methyl-2,4-dihydro-3H-1,2,4-triazol-3-one]
not more than 10%: Pyricularia oryzae; 200 ppm | Erysiphe graminis; 200 ppm | Leptosphaeria nodorum; 200 ppm | Puccinia striiformis; 200 ppm | Plasmopara viticola

Cc1ccc(-c2cccc(F)c2)cc1Cn1c(C(F)F)nn(C)c1=O [Compound 19, 5-difluoromethyl-4-{5-(3-fluorophenyl)-2-methylbenzyl}-2-methyl-2,4-dihydro-3H-1,2,4-triazol-3-one]
not more than 10%: Pyricularia oryzae; 200 ppm | Erysiphe graminis; 200 ppm | Leptosphaeria nodorum; 200 ppm | Puccinia striiformis; 200 ppm | Plasmopara viticola

Cc1cccc(-c2ccc(C)c(Cn3c(C(F)F)nn(C)c3=O)c2)n1 [Compound 117, 5-difluoromethyl-2-methyl-4-{2-methyl-5-(6-methyl-2-pyridyl)benzyl}-2,4-dihydro-3H-1,2,4-triazol-3-one]
not more than 10%: Pyricularia oryzae; 200 ppm | Erysiphe graminis; 200 ppm | Puccinia striiformis; 200 ppm | Plasmopara viticola

CCC(C#Cc1ccc(C)c(Cn2c(C(F)F)nn(C)c2=O)c1)(CC)OC [Compound 277, 5-difluoromethyl-4-{5-(3-ethyl-3-methoxy-1-pentynyl)-2-methylbenzyl}-2-methyl-2,4-dihydro-3H-1,2,4-triazol-3-one]
not more than 10%: Erysiphe graminis; 200 ppm | Leptosphaeria nodorum; 200 ppm | Puccinia striiformis; 200 ppm | Plasmopara viticola

Cc1ccc(C#CC(C)(C)C)cc1Cn1c(C(F)F)nn(C)c1=O [Compound 294, 5-difluoromethyl-4-{5-(3,3-dimethyl-1-butynyl)-2-methylbenzyl}-2-methyl-2,4-dihydro-3H-1,2,4-triazol-3-one]
not more than 10%: Pyricularia oryzae; 200 ppm | Erysiphe graminis; 200 ppm | Puccinia striiformis; 200 ppm | Plasmopara viticola

COCC(C)C#Cc1ccc(C)c(Cn2c(C(F)F)nn(C)c2=O)c1 (stereo not drawn) [Compound 326, 5-difluoromethyl-2-methyl-4-{2-methyl-5-(3-methyl-methoxy-1-butynyl)-benzyl)-2,4-dihydro-3H-1,2,4-triazol-3-one]
not more than 10%: Pyricularia oryzae; 200 ppm | Erysiphe graminis; 200 ppm | Puccinia striiformis; 200 ppm | Plasmopara viticola

From US6762197B2 (priority 1999, dated 2004)
